{"source": "the supplement of paper PMC7666118", "note": "The list shows a part of the results.", "data": [{"compound": "COc1ccc(Cn2ccc3ccc(C(=O)NO)cc32)cc1", "test": "dose-dependent thermal stabilisation call (2D-TPP, DLPTP, 10% FDR) (binary (1 = stabilised)); higher = stabilised by the compound", "settings": "system: HL-60 intact cells; concentration range 0.04-10 µM", "values": [{"target": "C3ORF38 (UniProt Q5JPI3)", "dose-dependent thermal stabilisation call": "inactive: 0"}, {"target": "C19ORF10 (UniProt Q969H8)", "dose-dependent thermal stabilisation call": "inactive: 0"}, {"target": "CASC5 (UniProt Q8NG31)", "dose-dependent thermal stabilisation call": "inactive: 0"}, {"target": "C14ORF2 (UniProt P56378)", "dose-dependent thermal stabilisation call": "inactive: 0"}, {"target": "C1ORF103 (UniProt Q5T3J3)", "dose-dependent thermal stabilisation call": "inactive: 0"}, {"target": "C1ORF128 (UniProt Q9GZP4)", "dose-dependent thermal stabilisation call": "inactive: 0"}, {"target": "C15ORF23 (UniProt Q9Y448)", "dose-dependent thermal stabilisation call": "inactive: 0"}, {"target": "C1ORF31 (UniProt Q5JTJ3)", "dose-dependent thermal stabilisation call": "inactive: 0"}, {"target": "C17ORF42 (UniProt Q96QE5)", "dose-dependent thermal stabilisation call": "inactive: 0"}, {"target": "C9ORF6 (UniProt Q9NX38)", "dose-dependent thermal stabilisation call": "inactive: 0"}, {"target": "C22ORF9 (UniProt Q6ICG6)", "dose-dependent thermal stabilisation call": "inactive: 0"}, {"target": "C1ORF27 (UniProt Q5SWX8)", "dose-dependent thermal stabilisation call": "inactive: 0"}, {"target": "C2ORF76 (UniProt Q3KRA6)", "dose-dependent thermal stabilisation call": "inactive: 0"}, {"target": "C19ORF66 (UniProt Q9NUL5)", "dose-dependent thermal stabilisation call": "inactive: 0"}, {"target": "CARS (UniProt P49589)", "dose-dependent thermal stabilisation call": "inactive: 0"}, {"target": "C19ORF52 (UniProt Q9BSF4)", "dose-dependent thermal stabilisation call": "inactive: 0"}, {"target": "C1ORF144 (UniProt Q7Z422)", "dose-dependent thermal stabilisation call": "inactive: 0"}, {"target": "C16ORF70 (UniProt Q9BSU1)", "dose-dependent thermal stabilisation call": "inactive: 0"}, {"target": "C19ORF6 (UniProt Q4ZIN3)", "dose-dependent thermal stabilisation call": "inactive: 0"}, {"target": "C18ORF24 (UniProt Q96BD8)", "dose-dependent thermal stabilisation call": "inactive: 0"}, {"target": "C17ORF49 (UniProt Q8IXM2)", "dose-dependent thermal stabilisation call": "inactive: 0"}, {"target": "C17ORF59 (UniProt Q96GS4)", "dose-dependent thermal stabilisation call": "inactive: 0"}, {"target": "C20ORF24 (UniProt Q9BUV8)", "dose-dependent thermal stabilisation call": "inactive: 0"}, {"target": "C8ORF59 (UniProt Q8N0T1)", "dose-dependent thermal stabilisation call": "inactive: 0"}, {"target": "CBX1 (UniProt P83916)", "dose-dependent thermal stabilisation call": "inactive: 0"}]}]}
